Data from publication PMC5206742.
Results are given in words; binding and its absence hold for the method and conditions named. In cells and extracts the contact can be indirect. Some binding calls cover weakened binding; strength is not graded here.

Sequences of proteins named here, by UniProt entry; tags and fusion partners are left off.
UniProt Q8K2F0: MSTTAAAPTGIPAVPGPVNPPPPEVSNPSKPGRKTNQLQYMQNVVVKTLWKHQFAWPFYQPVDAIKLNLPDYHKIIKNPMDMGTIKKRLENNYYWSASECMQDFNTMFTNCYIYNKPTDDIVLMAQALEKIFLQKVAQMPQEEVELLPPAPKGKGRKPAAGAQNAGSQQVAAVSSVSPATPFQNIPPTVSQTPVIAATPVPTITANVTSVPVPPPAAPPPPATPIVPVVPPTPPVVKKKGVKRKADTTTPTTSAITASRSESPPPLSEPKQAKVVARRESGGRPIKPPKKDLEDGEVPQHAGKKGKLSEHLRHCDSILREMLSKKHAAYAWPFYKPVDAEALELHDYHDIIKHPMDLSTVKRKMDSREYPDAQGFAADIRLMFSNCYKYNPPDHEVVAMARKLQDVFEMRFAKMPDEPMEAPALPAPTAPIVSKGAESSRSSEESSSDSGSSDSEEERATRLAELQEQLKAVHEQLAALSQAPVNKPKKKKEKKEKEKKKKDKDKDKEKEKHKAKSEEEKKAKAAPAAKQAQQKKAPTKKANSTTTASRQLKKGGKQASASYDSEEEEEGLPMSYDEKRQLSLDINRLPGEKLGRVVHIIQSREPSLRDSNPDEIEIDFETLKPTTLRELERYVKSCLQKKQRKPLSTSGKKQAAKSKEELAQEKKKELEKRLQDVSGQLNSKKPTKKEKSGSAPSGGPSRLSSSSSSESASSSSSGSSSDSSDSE

Target: Bromodomain protein 3 (Brd3), endogenous (mouse (endogenous in RAW264.7)) (UniProt Q8K2F0)
Experiment: co-IP

binding: binds
B1: IRF3, endogenous (protein, UniProt P70671 1-419)
chain: METPKPRILPWLVSQLDLGQLEGVAWLDESRTRFRIPWKHGLRQDAQMADFGIFQAWAEASGAYTPGKDKPDVSTWKRNFRSALNRKEVLRLAADNSKDPYDPHKVYEFVTPGARDFVHLGASPDTNGKSSLPHSQENLPKLFDGLILGPLKDEGSSDLAIVSDPSQQLPSPNVNNFLNPAPQENPLKQLLAEEQWEFEVTAFYRGRQVFQQTLFCPGGLRLVGSTADMTLPWQPVTLPDPEGFLTDKLVKEYVGQVLKGLGNGLALWQAGQCLWAQRLGHSHAFWALGEELLPDSGRGPDGEVHKDKDGAVFDLRPFVADLIAFMEGSGHSPRYTLWFCMGEMWPQDQPWVKRLVMVKVVPTCLKELLEMAREGGASSLKTVDLHISNSQPISLTSDQYKAYLQDLVEDMDFQATGNI
